This assay has as its target Disulfide HMGB1 (dsHMGB1, HMGBiotech, HM-120) (UniProt P09429). Briefly: ELISA.

Chains of the proteins cited; added tags and fusions are not shown. Residues count along the entry.
UniProt P09429: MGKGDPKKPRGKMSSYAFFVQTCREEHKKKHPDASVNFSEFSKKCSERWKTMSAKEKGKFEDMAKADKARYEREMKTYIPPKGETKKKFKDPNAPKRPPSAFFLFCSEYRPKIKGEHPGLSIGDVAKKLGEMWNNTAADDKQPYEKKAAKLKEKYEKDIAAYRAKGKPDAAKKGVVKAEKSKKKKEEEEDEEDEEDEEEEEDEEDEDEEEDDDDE
UniProt O00206, residues 24-631: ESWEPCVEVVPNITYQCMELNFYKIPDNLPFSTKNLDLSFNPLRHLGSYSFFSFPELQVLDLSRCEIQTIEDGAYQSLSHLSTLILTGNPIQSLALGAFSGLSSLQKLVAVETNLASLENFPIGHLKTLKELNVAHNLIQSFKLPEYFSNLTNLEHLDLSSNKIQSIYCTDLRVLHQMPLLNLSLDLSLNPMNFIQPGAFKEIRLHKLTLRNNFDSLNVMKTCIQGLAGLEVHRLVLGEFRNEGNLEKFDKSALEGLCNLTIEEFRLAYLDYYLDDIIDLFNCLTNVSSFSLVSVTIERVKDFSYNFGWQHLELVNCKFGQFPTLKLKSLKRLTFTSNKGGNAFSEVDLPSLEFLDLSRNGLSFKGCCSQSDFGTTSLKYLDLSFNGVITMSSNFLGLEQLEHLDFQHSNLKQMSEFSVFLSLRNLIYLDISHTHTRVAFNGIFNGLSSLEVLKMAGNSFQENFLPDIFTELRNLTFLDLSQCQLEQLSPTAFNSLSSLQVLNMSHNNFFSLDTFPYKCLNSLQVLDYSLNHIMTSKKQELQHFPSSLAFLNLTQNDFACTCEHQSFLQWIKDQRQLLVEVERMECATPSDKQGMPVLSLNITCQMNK

The results in this text go back to article doi:10.1101/2025.06.12.659430.

These are yes or no findings as the source states them, for the method shown. Some binding calls cover weakened binding; strength is not graded here.

For “human TLR4 (1478-TR-050, R&D), peroxidase-labeled (from UniProt O00206) (receptor)”, the binding entry was “binds”.
